Assay results from patent US20190175691A1, “METHODS FOR DETECTING AND MODULATING THE EMBRYONIC-FETAL TRANSITION IN MAMMALIAN SPECIES” (BioTime, Inc., priority 2016, published 2019).
Counter-ions that a name gives are not always drawn. For some assays here: For at least one compound, name, drawing or mass did not settle the structure. Some compounds share one wording; it may come from a single statement. Some entries share one result that the patent states for a list of compounds. Some compounds share one range, which may span the group rather than tell each member.

What was measured:
[1] = test system: Sarcoma lines ASPS-1 and Rh28 PX11/LPAM (COX7A1 expressing); assay: Sarcoma lines screened for sensitivity to chemotherapeutic agents; assay type: cell-based; details: typically
COX7A1 transcript = assay: Screen for iCM factors: increase of COX7A1 transcript in cancer cell lines; assay type: cell-based; details: Lung (A549), breast (MCF7), and prostate (PC3) cancer cell lines
From the text: Lung (A549), breast (MCF7), and prostate (PC3) cancer cell lines were exposed to diverse factors including biologically active small molecules as well as RNAi directed to specific genes and the relative increase in levels of COX7A1 transcript was used as a marker of iCM.

Compound	IC50 for apoptosis in COX7A1-expressing sarcoma lines relative to other sarcoma lines [1]	COX7A1 expression (relative increase of COX7A1 transcript as marker of iCM) (COX7A1 transcript)
COc1cccc2c1C(=O)c1c(O)c3c(c(O)c1C2=O)C[C@@](O)(C(C)=O)C[C@@H]3O[C@H]1C[C@H](N)[C@H](O)[C@H](C)O1 [Daunorubicin HCl]	1-2 orders of magnitude higher IC50	–
CCC(=O)CCCCC[C@@H]1NC(=O)[C@H]2CCCCN2C(=O)[C@H]([C@@H](C)CC)NC(=O)[C@H](Cc2cn(OC)c3ccccc23)NC1=O [apicidin]	–	increased COX7A1 expression
